Record: PubChem BioAssay AID1159508 (Drosophila RNAi Screening Center, 2015)

Screen: 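How silencing genes for RNA-binding proteins changes cellular ATP without other treatment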
System: Drosophila S2R+ cells
Reagent: long dsRNA against Drosophila genes
Time to read-out: 5 days
Measured: 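Total ATP per well measured by luciferase luminescence after 5 days, expressed as z-scores for each replicate and as their average across up to three replicates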
Direction: mean ATP z-score: higher = more total ATP luminescence
Hit rule: In these data the active calls have mean ATP z-score at about -2 or lower, or at about 2 or higher
Calls: active = strong ATP change (up or down); inactive = no strong ATP change
Here is an unselected part of 812 reagents. In the full data, 18 (2.2%) are marked active. 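Calls include both increased and decreased ATP; roughly one in four reagents has no third replicate value.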 Unmarked entries are inactive. Further read-outs or replicates are left out here. Reagent sequences are not shown. Not given: the amount of reagent.

With Ssrp [DRSC29959], what was measured?
mean ATP z-score: 1.01

What is on record for Ssrp [DRSC33199]?
mean ATP z-score: 0.713

With stc [DRSC03620], what was measured?
mean ATP z-score: -0.464

For stc [DRSC40850], what does the deposit list?
mean ATP z-score: -0.71

For NiPp1 [DRSC07307], how do the results read?
mean ATP z-score: -0.171

Which result is listed for NiPp1 [DRSC41261]?
mean ATP z-score: -0.0565

How did the screen score eEF1alpha2 [DRSC14079]?
mean ATP z-score: -0.457

What did the screen give for eEF1alpha2 [DRSC32103]?
mean ATP z-score: -0.728

With Phax [DRSC07066], what does the deposit list?
mean ATP z-score: 0.613

With Phax [DRSC42671], what does the deposit list?
mean ATP z-score: 0.601

For CG7849 [DRSC04895], what does the deposit list?
mean ATP z-score: -1.04

For CG7849 [DRSC26457], what does the deposit list?
mean ATP z-score: -1.58

For CG2145 [DRSC19835], what was measured?
mean ATP z-score: -0.521

For CG2145 [DRSC27564], what does the deposit list?
mean ATP z-score: -0.122

For ssx [DRSC23454], what does the deposit list?
mean ATP z-score: -0.906

With ssx [DRSC38980], how do the results read?
mean ATP z-score: 0.156

For CG7907 [DRSC26041], what does the deposit list?
mean ATP z-score: 0.376

Which result is listed for CG7907 [DRSC32963]?
mean ATP z-score: 1.29

With hyd [DRSC34921], what does the deposit list?
mean ATP z-score: -0.353

What did the screen give for hyd [DRSC38400]?
mean ATP z-score: -1.01

What did the screen give for CG2931 [DRSC12324]?
mean ATP z-score: 0.245

For CG2931 [DRSC42691], how do the results read?
mean ATP z-score: 0.668

Part of the list above, reformatted:
| gene | amplicon | mean ATP z-score |
| --- | --- | --- |
| eEF1alpha2 | DRSC14079 | -0.457 |
| eEF1alpha2 | DRSC32103 | -0.728 |
| Phax | DRSC07066 | 0.613 |
